This passage reports T/C results from PubChem BioAssay AID248 (DTP/NCI, 2004).

For this experiment, the system named is L1210 leukemia ip in BDF1 mice, survival T/C. Kind of experiment: NCI In Vivo Anticancer Drug Screen. Data for tumor model L1210 Leukemia (intraperitoneal) in B6D2F1 (BDF1) mice. Conditions: higher T/C = longer survival.
The mark [1] stands for this setting: T/C endpoint: mean survival time, dose: 100.0 mg/kg/injection, schedule: Q01DX009 (ip), vehicle: saline.
Setting [2] is: T/C endpoint: mean survival time, dose: 300.0 mg/kg/injection, schedule: Q01DX001 (ip), vehicle: saline.

The list does not hold the whole screen: it gathers some chemical classes. Other doses and runs of a compound may be missing. T/C gives the treated animals as a percentage of the vehicle group. For survival time, the PubChem record calls one and a half times the control and up active, and a quarter to a half above the control has no call in these data; cut-offs in other NCI protocols can differ. Some entries show no survivor count and are marked so; the dose need not have been tolerated. Schedules are NCI's codes, read here as Q, the interval in days (D) or hours (H), X, the number of doses. Some entries hold several experiments; their values stand side by side, smallest first. Some schedules carry Z or #; the key to these is not given.

On to `COc1c(C)cc(N(CCCl)CCCl)c2ccccc12`, for which the T/C is, setting by setting: (T/C endpoint: mean survival time, dose: 10.0 mg/kg/injection, schedule: Q01DX009 (ip), vehicle: carboxymethylcellulose (CMC)) 116 % of control [survivor count not shown]; (T/C endpoint: mean survival time, dose: 18.0 mg/kg/injection, schedule: Q01DX009 (ip), vehicle: carboxymethylcellulose (CMC)) 109 % of control [survivor count not shown]; (T/C endpoint: mean survival time, dose: 20.0 mg/kg/injection, schedule: Q01DX009 (ip), vehicle: carboxymethylcellulose (CMC)) 126 % of control [survivor count not shown]; (T/C endpoint: mean survival time, dose: 25.0 mg/kg/injection, schedule: Q01DX001 (ip), vehicle: carboxymethylcellulose (CMC)) 103 % of control [survivor count not shown]; (T/C endpoint: mean survival time, dose: 29.0 mg/kg/injection, schedule: Q01DX009 (ip), vehicle: carboxymethylcellulose (CMC)) 119 [survivor count not shown] and 122 % of control [survivor count not shown]; (T/C endpoint: mean survival time, dose: 29.0 mg/kg/injection, schedule: Q01DX009 (ip), vehicle: saline) 134 % of control [survivor count not shown]. The T/C by setting is: (T/C endpoint: mean survival time, dose: 45.0 mg/kg/injection, schedule: Q01DX009 (ip), vehicle: carboxymethylcellulose (CMC)) 120 [survivor count not shown] and 122 % of control [survivor count not shown]; (T/C endpoint: mean survival time, dose: 45.0 mg/kg/injection, schedule: Q01DX009 (ip), vehicle: saline) 157 % of control [survivor count not shown]; (T/C endpoint: mean survival time, dose: 50.0 mg/kg/injection, schedule: Q01DX001 (ip), vehicle: carboxymethylcellulose (CMC)) 111 % of control [survivor count not shown]; (T/C endpoint: mean survival time, dose: 65.0 mg/kg/injection, schedule: Q01DX009 (ip), vehicle: carboxymethylcellulose (CMC)) 91 [survivor count not shown] and 132 % of control [survivor count not shown]; (T/C endpoint: mean survival time, dose: 65.0 mg/kg/injection, schedule: Q01DX009 (ip), vehicle: saline) 140 % of control [survivor count not shown]; (T/C endpoint: mean survival time, dose: 90.0 mg/kg/injection, schedule: Q01DX001 (ip), vehicle: saline) 116 [survivor count not shown] and 117 % of control [survivor count not shown]. In addition, the T/C by setting is: (T/C endpoint: mean survival time, dose: 100.0 mg/kg/injection, schedule: Q01DX001 (ip), vehicle: carboxymethylcellulose (CMC)) 117 % of control [survivor count not shown]; (T/C endpoint: mean survival time, dose: 100.0 mg/kg/injection, schedule: Q01DX001 (ip), vehicle: saline) 148 % of control [survivor count not shown]; (T/C endpoint: mean survival time, dose: 100.0 mg/kg/injection, schedule: Q01DX009 (ip), vehicle: carboxymethylcellulose (CMC)) 96 [survivor count not shown] and 102 % of control [survivor count not shown]; under setting [1], 97 % of control [survivor count not shown]; (T/C endpoint: mean survival time, dose: 135.0 mg/kg/injection, schedule: Q01DX001 (ip), vehicle: saline) 118 [survivor count not shown] and 126 % of control [survivor count not shown]; (T/C endpoint: mean survival time, dose: 177.6 mg/kg/injection, schedule: Q01DX001 (ip), vehicle: carboxymethylcellulose (CMC)) 120 % of control [survivor count not shown]. For the same compound, the T/C is, setting by setting: (T/C endpoint: mean survival time, dose: 200.0 mg/kg/injection, schedule: Q01DX001 (ip), vehicle: carboxymethylcellulose (CMC)) 123 % of control [survivor count not shown]; (T/C endpoint: mean survival time, dose: 200.0 mg/kg/injection, schedule: Q01DX001 (ip), vehicle: saline) 122 [survivor count not shown], 129 [survivor count not shown], 160 % of control [survivor count not shown]; (T/C endpoint: mean survival time, dose: 266.8 mg/kg/injection, schedule: Q01DX001 (ip), vehicle: carboxymethylcellulose (CMC)) 127 % of control [survivor count not shown]; under setting [2], 116 [survivor count not shown] and 134 % of control [survivor count not shown]; (T/C endpoint: mean survival time, dose: 400.0 mg/kg/injection, schedule: Q01DX001 (ip), vehicle: carboxymethylcellulose (CMC)) 127 [survivor count not shown] and 129 % of control [survivor count not shown]; (T/C endpoint: mean survival time, dose: 400.0 mg/kg/injection, schedule: Q01DX001 (ip), vehicle: saline) 113 % of control [survivor count not shown]. In addition, for the setting “T/C endpoint: mean survival time, dose: 600.0 mg/kg/injection, schedule: Q01DX001 (ip), vehicle: carboxymethylcellulose (CMC)”, the T/C was 125 % of control [survivor count not shown].
Consider `O=S(=O)(c1ccccc1)N(CCCl)CCCl`, for which the T/C was 100 % of control [survivor count not shown] (T/C endpoint: median survival time, dose: 100.0 mg/kg/injection, schedule: Q01DX009 (ip), vehicle: Klucel (hydroxypropylcellulose) (HPC)); 97 % of control [survivor count not shown] (T/C endpoint: median survival time, dose: 200.0 mg/kg/injection, schedule: Q01DX009 (ip), vehicle: Klucel (hydroxypropylcellulose) (HPC)); 94 % of control [survivor count not shown] (T/C endpoint: median survival time, dose: 400.0 mg/kg/injection, schedule: Q01DX009 (ip), vehicle: Klucel (hydroxypropylcellulose) (HPC)).
With `COc1ccc([N+](=O)[O-])cc1CN(CCBr)CCBr`, the T/C is, setting by setting: (T/C endpoint: mean survival time, dose: 100.0 mg/kg/injection, schedule: Q01DX001 (ip), vehicle: Klucel (hydroxypropylcellulose) (HPC)) 107 % of control [survivor count not shown]; (T/C endpoint: mean survival time, dose: 200.0 mg/kg/injection, schedule: Q01DX001 (ip), vehicle: Klucel (hydroxypropylcellulose) (HPC)) 100 % of control [survivor count not shown].
For the compound `CC/C(C)=N/N(CCCl)CCCl`, the T/C under setting [1] is 103 % of control [survivor count not shown].
Consider `CCNC(=O)Cc1ccc(N(CCCl)CCCl)cc1`, for which the T/C is 100 % of control [survivor count not shown] (T/C endpoint: mean survival time, dose: 75.0 mg/kg/injection, schedule: Q01DX001 (ip), vehicle: saline); 94 % of control [survivor count not shown] (T/C endpoint: mean survival time, dose: 150.0 mg/kg/injection, schedule: Q01DX001 (ip), vehicle: saline); 109 % of control [survivor count not shown] under setting [2].
Regarding `ClCCN(CCCl)c1ccc(Oc2ccccc2)cc1`, the T/C is, setting by setting: (T/C endpoint: mean survival time, dose: 100.0 mg/kg/injection, schedule: Q01DX001 (ip), vehicle: acetone) 98 % of control [survivor count not shown]; under setting [1], 120 % of control [survivor count not shown]; (T/C endpoint: mean survival time, dose: 100.0 mg/kg/injection, schedule: Q01DX Z (ip), vehicle: carboxymethylcellulose (CMC)) 107 % of control [survivor count not shown]; (T/C endpoint: mean survival time, dose: 100.0 mg/kg/injection, schedule: Q04DX003 (ip), vehicle: saline) 105 % of control [survivor count not shown]; (T/C endpoint: mean survival time, dose: 200.0 mg/kg/injection, schedule: Q01DX001 (ip), vehicle: acetone) 92 % of control [survivor count not shown]; (T/C endpoint: mean survival time, dose: 200.0 mg/kg/injection, schedule: Q01DX009 (ip), vehicle: saline) 111 % of control [survivor count not shown]. The T/C is 98 % of control [survivor count not shown] (T/C endpoint: mean survival time, dose: 200.0 mg/kg/injection, schedule: Q01DX Z (ip), vehicle: carboxymethylcellulose (CMC)); 106 % of control [survivor count not shown] (T/C endpoint: mean survival time, dose: 200.0 mg/kg/injection, schedule: Q04DX003 (ip), vehicle: saline); 93 % of control [survivor count not shown] (T/C endpoint: mean survival time, dose: 400.0 mg/kg/injection, schedule: Q01DX001 (ip), vehicle: acetone); 118 % of control [survivor count not shown] (T/C endpoint: mean survival time, dose: 400.0 mg/kg/injection, schedule: Q01DX009 (ip), vehicle: saline); 98 % of control [survivor count not shown] (T/C endpoint: mean survival time, dose: 400.0 mg/kg/injection, schedule: Q01DX Z (ip), vehicle: carboxymethylcellulose (CMC)); 106 % of control [survivor count not shown] (T/C endpoint: mean survival time, dose: 400.0 mg/kg/injection, schedule: Q04DX003 (ip), vehicle: saline). In addition, the T/C (T/C endpoint: mean survival time, dose: 800.0 mg/kg/injection, schedule: Q01DX Z (ip), vehicle: carboxymethylcellulose (CMC)) is 108 % of control [survivor count not shown].
